Measurements taken from patent publication US20260008852A1.
Numbering of substitutions follows the chain as printed. These are yes or no findings as the source states them, for the method shown. Binding calls can cover weak binding; strength is not graded here. Each block holds one binder with its values, some of them ahead of it.

Biological target: His-tagged cynomolgus monkey B7-H3 (cynomolgus monkey)
Test: ELISA, coated His-tagged antigen

binding: binds
B1: 40633p1.2.D1 (scFv, V domains shown)
VH: EVQLLESGGGLVQPGGSLRLSCAASGFTFDVYGMSWVRQAPGKGLEWVSAINWNGGSTYYADSVKGRFTISRDNSENTLYLQMNSLRAEDTAVYYCAKEKWKHFIYYGMDVWGQGTTVTVSS
VL: QSVLTQPASASGTPGQTVSISCSGSSSNIDSNTANWYQQLPGTAPKLLIYSNNQRPSGVPDRFSGSKSDTSASLAISGLQSEDEGDYYCSAWDDNLNGWLFGGGTKLTVL

binding: binds
B2: 40633p1.1.F2 (scFv, V domains shown)
VH: EVQLLESGGGLVQPGGSLRLSCVASGLTFNGFAMTWVRQAPGKGLEWVSGISWNSGSIYYADSVKGRFTISRDNSKNTVYLQMSSLRAEDTAIYYCAKNWNDYYNSMDVWGQGTTVTVSS
VL: QSVLTQPPSASGTPGQRVTISCSGSRSNIGTKYVYWYQQFPGTAPKLLIYTTDRRPSGVPDRFSGSKSGTSASLAISGLQSEDEADYYCSAWDDRLNAWVFGGGTKLTVL

binding: binds
B3: 40633p1.1.D11 (scFv, V domains shown)
VH: EVQLLESGGGLVQPGGSLRLSCAASGFTFRSYAMSWVRQAPGKGLEWVAYIGSSGGTTYYADSVKGRFTISRDNSKNTLYLQMNSLRAEDTAVYYCVKESYYYMDVWGQGTTVTVSS
VL: QSVLTQPPSASGTPGQRVTISCSATISNIDINRVSWYQQLPGTAPKLLIFNSQRPSGVPDRFSGSKSGTSASLAISGLQSEDEADYYCATWDDSLNSWVFGGGTKLTVL

binding: binds
B4: 40633p1.1.A6 (scFv, V domains shown)
VH: EVQLLESGGGLVQPGGSLRLSCAASGFSFSNYDMSWVRQAPGKGLEWVAGIRSGSRTYYADSVKGRFTISRDNSKNTLYLQMNSLRAEDTATYYCGRYFNMDVWGQGTTVTVSS
VL: QSVLTQPPSASGTPGQRVTISCSGSTFNIGTNLVHWYQQLPGTAPKLLIYLTDRRPSGVPDRFSGSKSGTSASLAISGLQSEDEANYYCATWDDSLNSFLFGGGTKLTVL

binding: binds
B5: 40633p1.2.E11 (scFv, V domains shown)
VH: B4 VH
VL: B4 VL with S57P

binding: binds
B6: 40633p1.1.A11 (scFv, V domains shown)
VH: EVQLLESGGDLVQPGGSLRLSCAASGFTFNTYWMNWVRQAPGKGLEWVAGINSKGGVTYYADSVKGRFTISRDNSKNTLYLQMNSLRAEDTAVYYCADWNDYDIMDVWGQGTTVTVSS
VL: QSVLTQPPSASGTPGQTITISCSGSSSNVGRRTVNWYQQLPGTAPKLLIYTNAQRPSGVPDRFSGSKSGTSASLAISGLQSEDEADYYCATWDDSLNAWVFGGGTKLTVL

binding: no binding (tested: 1 ug/ml)
B7: 40633p1.2.C11 (scFv, V domains shown)
VH: B6 VH with D10G, N30S, T31S, N35S, S53R, K54N, V57S, K76E, M83V, D98R
VL: QSVLTQPSSASGTPGQRVTISCSGSSSNVGRRAVNWYQQLPGTAPKLLISNSQRPSGVPDRFSGSKSGTSASLAISGLQSEDEADYYCATWDASLNSWVFGGGTKLTVL

binding: binds
B8: 40633p1.1.B3 (scFv, V domains shown)
VH: EVQLLESGGGLVQPGGSLRLSCAASGFTVSYYGMSWVRQAPGKGLEWVSAIKQDGSEKYYADSVKGRFTISRDNSKNTLYLQMNSLRAEDTAVYYCARHWNDYSNAMNVWGQGTTVTVSS
VL: B2 VL with R26T, T31R, K32E, Y33S, F40L, T52I, R54Q, S90G, A91T, R95S

binding: binds
B9: 40633p1.1.G7 (scFv, V domains shown)
VH: EVQLLESGGGLVQPGGSLRLSCAASGFTFSGSAMNWVRQAPGKGLEWVSAINSGGTTIYYADSVKGRFTVSRDNSKNTLYLQMNSLRAEDTAVYYCVKLDFYYGMDVWGEGTTVTVSS
VL: QSVVTQPPSASGTPGQRVTVSCSGSSSNVGSKYVQWYQQLPGTAPKLLIYATDRRPSGVPDRFSGSKSGTSASLAISGLQSEDEADYYCASWDDSLNAWVFGGGTKLTVL

binding: binds
B10: 40633p1.1.B12 (scFv, V domains shown)
VH: EVQLLESGGGLLQPGGSLRLSCAASGFSFSSYGMHWVRQAPGKGLEWVAAINSDGSRIYYADSVKGRFTISRDNSKNTLYLQMNSLRAEDTAVYYCTKYYYHYAMDVWGQGTTVTVSS
VL: QSVLTQPPSASGTPGQRVTISCSGSRSDIGATTVNWYQQLPGTAPKLLTYQSHLRPSGVPDRFSGSKSGTSASLAISGLQSEDEADYYCASWDASLNTWVFGGGTKLTVL

binding: binds
B11: 40633p1.1.G10 (scFv, V domains shown)
VH: B10 VH with L12V, Q13E, E46D, A50V, S53G, D54E, R57G, I58T, N77S, H102N
VL: B10 VL with S27T, A31T, T33S, T49I, L54Q, L96Q

binding: binds
B12: 40633p1.2.G9 (scFv, V domains shown)
VH: B10 VH with K65E
VL: B10 VL with T49I

binding: binds
B13: 40633p1.2.A8 (scFv, V domains shown)
VH: B10 VH
VL: B10 VL with T49I

binding: binds
B14: 40633p1.1.A7 (scFv, V domains shown)
VH: B8 VH
VL: QSVLTQPPSASGTPGQRVTISCSGSTSNIGRESVYWYQQLPGTAPKLLIYTIDQRPSGVPDRFSGSKSGTSASLAISGLQSEDEAVYYCASWDASLNGWVFGGGTKLTVL

binding: binds
B15: 40633p1.2.D11 (scFv, V domains shown)
VH: EVQLESGGGLVQPGGSLRLSCAASGFTVSYYGMSWVRQAPGKGLEWVSAIKQDGSEKYYADSVKGRFTISRDNSKNTLYLQMNSLRAEDTAVYYCARHWNDYSNAMNVWGQGTTVTVSS
VL: B14 VL with G30A, R31I, E32D, S33F, Y35N, G103R

binding: binds
B16: 40633p1.1.G5 (scFv, V domains shown)
VH: B8 VH with T28I, S30N, A40P, N77T, A106G
VL: QSVLTQPPSASGTPGQRVTISCSGSWSNIGSYNSHWYQKLPGTAPKLLIYTTDRRPSGVPDRFSGSKSGTSASLAISGLQSEDEADYYCGTWDDSLNVWVFGGGTKLTVL

binding: binds
B17: 40633p1.2.E1 (scFv, V domains shown)
VH: B8 VH with G9R, A50V, K58E, A106G
VL: B14 VL with I29V, R31D, E32R, S33Y, T51L, I52D, V86D

binding: binds
B18: 40633p1.2.A10 (scFv, V domains shown)
VH: B8 VH with A50V, K58E, A106G
VL: B14 VL with I29V, R31D, E32R, S33Y, T51L, I52D, V86D

binding: binds
B19: 40633p1.1.G11 (scFv, V domains shown)
VH: B8 VH with A50V, K58E, L86P, A106G
VL: B14 VL with I29V, R31D, E32R, S33Y, T51L, I52D, V86D

binding: binds
B20: 40633p1.2.C3 (scFv, V domains shown)
VH: B8 VH with G111E
VL: B14 VL with T26N, I29V, R31G, E32N, S33Y, Y35S, T51R, I52N, D53S

binding: binds
B21: 40633p1.1.H11 (scFv, V domains shown)
VH: EVQLLESGGGLVQPGGSLRLSCAASGFTFSSYPMTWVRQAPGKGLEWVADINSGGGTTLYADAVKGRFTISRDNSKNIVYLQMNSLRGEDTAVYYCAKHLDYYSYGMDVWGQGTTVTVSS
VL: QSVLTQPPSASGTPGQRVTISCSGVTSKIGSKYVHWYQQLPGTAPKLLIYRNFERPSGVPDRFSGSTSGTSASLAISGLQSEDEADYYCATWEGALNGWVFGGGTKLTVL
